Measurements published in the supplement of paper PMC5949888.
Most values lie at the floor of the assay. Slopes are relative: functional sequences can read slightly below zero.

System: Saccharomyces cerevisiae PS128 hsf1 delta, HSF1(1-493) fusion
Experiment: growth estimate (transactivation domain function in HSF1 fusion, heat-shock survival) (a.u. (slope of normalised read count over time)); higher = stronger growth at 37°C, i.e. more transactivation activity
Conditions: library: random library

| Substance | growth estimate |
| --- | --- |
| SRSPVESLRPHAQG | < -0.25 |
| SRSSQQPDTSSAFSWVVGVM | < -0.25 |
| SRSTVIRCGNRKYRLPIGVP | < -0.25 |
| SRSVERGLDKERVE | < -0.25 |
| SRSVVLLKYLNAGLFPSLIR | < -0.25 |
| SRTSHGPGTVSY | < -0.25 |
| SRTSSAAGE | < -0.25 |
| SRTSVKPNLYDSDCMGHKPS | < -0.25 |
| SRTSVLRYGNPHCIVLHVRS | < -0.25 |
| SRVAWNLSRSPPYWIA | < -0.25 |
| SRVDRVFRLSDMSIRLERYQ | < -0.25 |
| SRVHINTAEALRFSLA | < -0.25 |
| SRVKTDVMGADNEAIATI | -0.0748 |
| SRVTTL | < -0.25 |
| SRVWPHLSNPCGYIDCAPLG | < -0.25 |
| SRVYSIGSRRCRLLSDPGAQ | < -0.25 |
| SRWLDIALTLAQLETFESEF | -0.043 |
| SRWNHPVVRDNGKAEATIVT | < -0.25 |
| SRWPGDTLTTAYLITVYPSV | < -0.25 |
| SRYGPQV | < -0.25 |
| SRYSNVVFQWARV | < -0.25 |
| SRYSSVIR | < -0.25 |
| SSA | < -0.25 |
| SSACRTD | < -0.25 |
| SSDAVHVAAAIRPEGWRPDL | < -0.25 |

| Substance | growth estimate |
| --- | --- |
| SSDL | < -0.25 |
| SSDLIRPN | < -0.25 |
| SSDLRQSARARPVGSFLRRR | -0.197 |
| SSDQHLHNPIKTDGPRPLNA | < -0.25 |
| SSFAIAPFLSKVAMRYSLRG | < -0.25 |
| SSFGGERPMREVWLPGRADK | < -0.25 |
| SSFGPWS | < -0.25 |
| SSFICTCHVGLPDPRDLLTY | -0.248 |
| SSFLREGFRCKERR | < -0.25 |
| SSFNAASCPMCGLLMGKSPP | < -0.25 |
| SSFRGRQPP | < -0.25 |
| SSGAWRLHESCSGTSRVHHQ | -0.246 |
| SSGPQGLRGHVPRAVISCGM | < -0.25 |
| SSGQELPAAPQGPSRSS | < -0.25 |
| SSGRTQEVPRIPVKSRRERN | < -0.25 |
| SSGVHQFHGSASGIDGNPWD | < -0.25 |
| SSGWNGREIRSSFQRVLDAC | -0.112 |
| SSHFNTVT | < -0.25 |
| SSHGVLRS | < -0.25 |
| SSHRRAAVRPSVCLADVGKI | < -0.25 |
| SSHTHPVVLCKH | < -0.25 |
| SSIDLVGPGPWWEPNLGTGN | < -0.25 |
| SSIDSGPHPSVDGAATTHMP | < -0.25 |
| SSIKELDALDSRSPA | < -0.25 |
| SSKHVILPRS | < -0.25 |

| Substance | growth estimate |
| --- | --- |
| SSKNA | < -0.25 |
| SSKYAQFYVD | < -0.25 |
| SSL | < -0.25 |
| SSLAVSYMWGATRPF | < -0.25 |
| SSLDRRVIANS | < -0.25 |
| SSLIACPSCDRFRLALDRTN | < -0.25 |
| SSLKG | < -0.25 |
| SSLLKLRHPLHIIVADF | < -0.25 |
| SSLPLSGRSCWGTEEL | < -0.25 |
| SSLPTADGLREDSCELLPAG | < -0.25 |
| SSLRSPPSLGAGC | < -0.25 |
| SSLSACRDLSHTANSPISKA | < -0.25 |
| SSLYRGPFAASWLVAPTSPS | < -0.25 |
| SSLYRWRDT | < -0.25 |
| SSMNRATHYEAFFAMHVYPM | < -0.25 |
| SSMTAPLLGRNSASIVISAG | < -0.25 |
| SSNGFDLGSDVHHCTCI | < -0.25 |
| SSPP | < -0.25 |
| SSQSVVR | < -0.25 |
| SSQWLGHHPSLPNVVLNDLR | < -0.25 |
| SSRFTMWLARGWV | < -0.25 |
| SSRGGITRDET | < -0.25 |
| SSRGT | < -0.25 |
| SSRL | < -0.25 |
| SSRLAIG | -0.235 |

A section from further up, for reference:

| Substance | growth estimate |
| --- | --- |
| SSGPQGLRGHVPRAVISCGM | < -0.25 |
| SSGQELPAAPQGPSRSS | < -0.25 |
| SSGRTQEVPRIPVKSRRERN | < -0.25 |
| SSGVHQFHGSASGIDGNPWD | < -0.25 |
| SSGWNGREIRSSFQRVLDAC | -0.112 |
| SSHFNTVT | < -0.25 |
| SSHGVLRS | < -0.25 |
| SSHRRAAVRPSVCLADVGKI | < -0.25 |
| SSHTHPVVLCKH | < -0.25 |
| SSIDLVGPGPWWEPNLGTGN | < -0.25 |
| SSIDSGPHPSVDGAATTHMP | < -0.25 |
| SSIKELDALDSRSPA | < -0.25 |
| SSKHVILPRS | < -0.25 |
| SSKNA | < -0.25 |
| SSKYAQFYVD | < -0.25 |
| SSL | < -0.25 |
| SSLAVSYMWGATRPF | < -0.25 |
| SSLDRRVIANS | < -0.25 |
| SSLIACPSCDRFRLALDRTN | < -0.25 |
| SSLKG | < -0.25 |
| SSLLKLRHPLHIIVADF | < -0.25 |
| SSLPLSGRSCWGTEEL | < -0.25 |
| SSLPTADGLREDSCELLPAG | < -0.25 |
| SSLRSPPSLGAGC | < -0.25 |
| SSLSACRDLSHTANSPISKA | < -0.25 |
| SSLYRGPFAASWLVAPTSPS | < -0.25 |
| SSLYRWRDT | < -0.25 |
| SSMNRATHYEAFFAMHVYPM | < -0.25 |
| SSMTAPLLGRNSASIVISAG | < -0.25 |
| SSNGFDLGSDVHHCTCI | < -0.25 |
| SSPP | < -0.25 |
| SSQSVVR | < -0.25 |
| SSQWLGHHPSLPNVVLNDLR | < -0.25 |

Next part

| Substance | growth estimate |
| --- | --- |
| SSRN | < -0.25 |
| SSRQPQRVSGQKVHGPIEPC | < -0.25 |
| SSRTVDLRLQSCGFSQITPR | < -0.25 |
| SSRVL | < -0.25 |
| SSRVLLGCQDNARQNTAVAG | < -0.25 |
| SSSCPRQKDMAV | < -0.25 |
| SSSFSRPRR | < -0.25 |
| SSSKAIPSSPKPGKATPPQH | < -0.25 |
| SSSLGES | < -0.25 |
| SSSNFLEGCDRDPVLDVSVR | < -0.25 |
| SSSRPVETDVPNIHGSTGVS | < -0.25 |
| SSTMCCFFWWHTLCVVARID | < -0.25 |
| SSTVLSLVNLFRTLRQR | < -0.25 |
| SSVDGGG | < -0.25 |
| SSVQSTASIERVNTAHIVDY | < -0.25 |
| SSVRATRILNGRD | < -0.25 |
| SSVSEVIGPAPDRRREQIDT | < -0.25 |
| SSVSGIRRN | < -0.25 |
| SSVSIGPII | -0.246 |
| SSVTL | < -0.25 |
| SSWHTSLLLRWVWRWRHMHS | < -0.25 |
| SSWSILRCSL | < -0.25 |
| SSYSLSSFSGYSSVVSL | < -0.25 |
| STAD | < -0.25 |
| STADGIVCFG | < -0.25 |

| Substance | growth estimate |
| --- | --- |
| STAFFSGTTCP | < -0.25 |
| STARTCESHDYSHIQLLKST | < -0.25 |
| STAWDEVTV | < -0.25 |
| STCSEMIRAYPQVGGVSS | < -0.25 |
| STDIESVATVRLSGQAVHSG | < -0.25 |
| STEMNCTTGRLGFQTVEECG | < -0.25 |
| STERYCSTEVDYTYPIQVRA | < -0.25 |
| STESWLEGSVF | -0.221 |
| STEWIYASKAIIH | < -0.25 |
| STFAKPMPILSPSCKVGSLR | < -0.25 |
| STFQFGLTDTCYHLMTTSKR | -0.248 |
| STGESCKR | < -0.25 |
| STGLAEMTTRRVL | < -0.25 |
| STGRYKKTAAF | < -0.25 |
| STHVSWYGDFMVRGREFING | < -0.25 |
| STIDLRSAWKQRVFHPVKAH | < -0.25 |
| STIIDRAYAM | < -0.25 |
| STIMGWMALDGPLCLLRAPR | < -0.25 |
| STIPAFGLWRTSRGRALMSS | < -0.25 |
| STK | < -0.25 |
| STKGCRQLHSKCEFAQPTQG | < -0.25 |
| STKHELELCSSRGLARRPTV | < -0.25 |
| STLCAHAGGNSTRGAGAISC | < -0.25 |
| STLKPIRHY | < -0.25 |
| STLN | < -0.25 |

| Substance | growth estimate |
| --- | --- |
| STNDRCTGATLPR | < -0.25 |
| STPLSREQTRVWRFADRNLL | < -0.25 |
| STPYSR | < -0.25 |
| STQSCDYVLGHSAVWNSFDY | 2.42 |
| STREIISVRTIPTNTVPSDG | -0.185 |
| STRTGGT | -0.242 |
| STRWMGTMVADYLKQCVQVP | < -0.25 |
| STS | < -0.25 |
| STSGR | < -0.25 |
| STSLVRYLDRNILRVVSK | < -0.25 |
| STSRKKCNKGLGPPGR | < -0.25 |
| STSRPTKVCAVRNQD | -0.246 |
| STSSAMPVSRSIEKQSGRWP | < -0.25 |
| STTEGECDFPDHLLALRPSP | < -0.25 |
| STTGIQGR | < -0.25 |
| STV | < -0.25 |
| STWEVRTSGGISYL | < -0.25 |
| STWVKSHCLFEETVPG | < -0.25 |
| STYGY | < -0.25 |
| STYSALALALLGPN | < -0.25 |
| STYSEFPARGVSHWCMRGRL | < -0.25 |
